Results deposited as PubChem BioAssay AID743454 (Peter MacCallum Cancer Centre, 2014)
Purpose: 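Genes whose loss kills vorinostat-resistant colon cancer cells under vorinostat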 (primary screen). System: human HCT116-VR colon cancer cells, selected for vorinostat resistance. Knock-down reagent: siRNA pool against human genes, 40 nM siRNA pool. Time to read-out: vorinostat for 24 h, read-out about 72 h after transfection. Conditions: vorinostat at 2.5 µM final. Measurement: 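Cell viability by CellTiter-Fluor and caspase 3/7 activity by luminescence, each scaled to mock wells per plate, duplicates averaged, then robust z-scored over all plates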. Reading the numbers: viability robust z-score: higher = more viable cells than screen typical; caspase robust z-score: higher = more caspase 3/7 activity than screen typical. Rule for the call: 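a knock-down is a hit when classed RV1 or RV2 for lowered viability, or CA1 or CA2 for caspase activation; those lethal without drug were dropped; hits were retested singly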.
This is one part, drawn at random, of about 18,000 deposited reagents. 450 of all reagents (2.5%) count as active. 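Single biological run; no consistent viability z cut-off exists, so the class columns, not z-scores, define the calls.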 No sequences are given here.

Target gene,viability hit class,caspase hit class,viability robust z-score,caspase robust z-score,Call
OR7C2,no change,no change,-1.9,0.62,inactive
RPL28,no change,no change,-1.72,-0.48,inactive
SLC35F5,no change,no change,0.82,-1.27,inactive
HAPLN1,no change,no change,0.42,-0.17,inactive
MCM5,no change,no change,-1.32,2.7,inactive
LIPF,no change,no change,0.74,-0.84,inactive
NIPA2,no change,no change,-0.12,2.45,inactive
CCDC116,no change,no change,-0.83,0.22,inactive
NEK5,no change,no change,2.1,-0.91,inactive
ZNF566,no change,no change,-0.85,1.26,inactive
LYN,no change,no change,-0.9,-0.41,inactive
SPIN2B,no change,no change,0.26,-0.34,inactive
DDX49,no change,no change,-1.56,1.49,inactive
HLA-DRB1,no change,no change,0.18,-0.38,inactive
KERA,no change,no change,-1.05,1.23,inactive
CDYL,no change,no change,2.66,1.27,inactive
TIAL1,no change,no change,-0.89,1.97,inactive
CORIN,no change,no change,-0.82,1.77,inactive
UAP1L1,no change,no change,0.04,-0.74,inactive
COL6A3,no change,no change,-0.46,1.58,inactive
FAM124A,no change,no change,-0.68,0.06,inactive
SIGLEC9,no change,no change,-0.39,-0.22,inactive
TTC39C,no change,no change,0.72,0.76,inactive
RSU1,no change,no change,-0.96,1.22,inactive
SSBP4,no change,no change,0.12,-0.82,inactive
FETUB,no change,no change,1.28,0.06,inactive
TRMT13,no change,no change,-0.84,-0.51,inactive
KLC4,no change,no change,0.68,1.14,inactive
SIGLEC11,no change,no change,-0.73,1.45,inactive
CACNA1C,no change,no change,-1.48,0.27,inactive
CKMT1A,no change,no change,-1.64,0.8,inactive
ZNF681,no change,no change,0.52,-0.3,inactive
THBS1,no change,no change,-0.03,2.44,inactive
ATOH7,no change,no change,-0.46,-0.12,inactive
CAPN10,no change,no change,-0.98,1.38,inactive
SDS,no change,no change,-0.17,3.87,inactive
BCAT2,no change,no change,0.29,-0.97,inactive
COX7A2,no change,no change,0.06,-0.51,inactive
ZBTB2,no change,CA2 (caspase activation),-3.77,5.99,active
ASIC5,no change,no change,-1.38,-0.4,inactive
APOC2,no change,no change,-0.15,1.05,inactive
CXXC5,no change,no change,0.04,0.12,inactive
TBX5,no change,no change,0.37,-0.74,inactive
VRK3,no change,no change,0.68,0.28,inactive
CCDC86,no change,no change,-1.92,0.98,inactive
BARHL2,no change,no change,0.47,-0.6,inactive
HUNK,no change,no change,-2.82,1.42,inactive
ADAMTS2,no change,no change,-0.42,0.2,inactive
ZPBP2,no change,no change,-1.04,0.04,inactive
RASA4,no change,no change,-0.72,0.44,inactive
PXN,no change,no change,0.1,-0.82,inactive
SRSF11,no change,no change,1.17,0.3,inactive
BTNL9,no change,no change,-1.04,-0.94,inactive
PDZD4,no change,no change,0.26,0.3,inactive
OPTN,no change,no change,-0.28,2.34,inactive
LAMA5,no change,no change,2.08,-0.05,inactive
SPRED2,no change,no change,0.75,1.81,inactive
